Experimental data as given in paper PMC11338640.

Protein sequences, listed by entry. Tags and fused reporters are not part of them. Residues count along the entry.
UniProt P25705, residues 44-553: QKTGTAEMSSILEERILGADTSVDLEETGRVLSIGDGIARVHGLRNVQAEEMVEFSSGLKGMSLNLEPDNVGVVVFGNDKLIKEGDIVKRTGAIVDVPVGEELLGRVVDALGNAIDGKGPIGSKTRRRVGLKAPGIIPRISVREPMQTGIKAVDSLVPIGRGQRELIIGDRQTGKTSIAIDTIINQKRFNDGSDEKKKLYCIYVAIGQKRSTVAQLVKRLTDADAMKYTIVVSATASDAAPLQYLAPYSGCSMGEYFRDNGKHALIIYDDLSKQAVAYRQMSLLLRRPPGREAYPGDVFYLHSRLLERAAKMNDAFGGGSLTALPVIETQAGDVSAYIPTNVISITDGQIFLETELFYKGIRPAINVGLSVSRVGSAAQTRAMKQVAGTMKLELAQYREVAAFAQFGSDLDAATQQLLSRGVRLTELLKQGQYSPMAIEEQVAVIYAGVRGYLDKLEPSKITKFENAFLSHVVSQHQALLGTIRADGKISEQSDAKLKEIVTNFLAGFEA
UniProt O75947: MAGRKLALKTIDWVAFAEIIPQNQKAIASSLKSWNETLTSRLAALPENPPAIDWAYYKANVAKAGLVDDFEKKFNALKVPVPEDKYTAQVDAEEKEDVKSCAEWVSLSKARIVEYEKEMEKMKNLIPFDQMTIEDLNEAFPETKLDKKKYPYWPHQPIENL

T1: MC089-FLAG (molluscum contagiosum virus protein MC089, C-terminal FLAG tag, pMEP4, CdCl2-inducible) (Molluscum contagiosum virus subtype 1) (UniProt Q98256)
T1 sequence: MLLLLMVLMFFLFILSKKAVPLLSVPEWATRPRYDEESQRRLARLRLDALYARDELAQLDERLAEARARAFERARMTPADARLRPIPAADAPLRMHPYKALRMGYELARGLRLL

B1: ATP5O (mitochondrial ATP synthase subunit) (protein, UniProt P48047 24-213)
chain: FAKLVRPPVQVYGIEGRYATALYSAASKQNKLEQVEKELLRVAQILKEPKVAASVLNPYVKRSIKVKSLNDITAKERFSPLTTNLINLLAENGRLSNTQGVVSAFSTMMSVHRGEVPCTVTSASPLEEATLSELKTVLKSFLSQGQVLKLEAKTDPSILGGMIVRIGEKYVDMSVKTKIQKLGRAMREIV
B2: ATP5J (mitochondrial ATP synthase subunit) (protein, UniProt P18859 33-108)
chain: NKELDPIQKLFVDKIREYKSKRQTSGGPVDASSEYQQELERELFKLKQMFGNADMNTFPTFKFEDPKFEVIEKPQA
B3: ATP5F1 (mitochondrial ATP synthase subunit) (protein, UniProt P24539 43-256)
chain: PVPPLPEYGGKVRYGLIPEEFFQFLYPKTGVTGPYVLGTGLILYALSKEIYVISAETFTALSVLGVMVYGIKKYGPFVADFADKLNEQKLAQLEEAKQASIQHIQNAIDTEKSQQALVQKRHYLFDVQRNNIAMALEVTYRERLYRVYKEVKNRLDYHISVQNMMRRKEQEHMINWVEKHVVQSISTQQEKETIAKCIADLKLLAKKAQAQPVM

Biological target: T1, MC089-FLAG (molluscum contagiosum virus protein MC089, C-terminal FLAG tag, pMEP4, CdCl2-inducible) (Molluscum contagiosum virus subtype 1)
Assay: affinity purification with mass spectrometry; stable CdCl2-induced MEP4-MC089-FLAG HEK293T cells against pMEP4 empty vector cells, n=4; TAP lysis buffer (50 mM Tris-HCl pH 7.5, 0.2% NP-40, 100 mM NaCl), anti-FLAG M2 affinity gel 1 h at 4 °C; LC-MS/MS, label-free quantification, FDR 0.01

| Molecule | binding |
| --- | --- |
| ATP5A1 (mitochondrial ATP synthase subunit) (from UniProt P25705 44-553) | binds |
| ATP5B (mitochondrial ATP synthase subunit) (from UniProt P06576 48-529) | binds |
| ATP5H (mitochondrial ATP synthase subunit) (from UniProt O75947 1-161) | binds |
| B1 | binds |
| B2 | binds |
| B3 | binds |

Results are given in words; binding and its absence hold for the method and conditions named. Binding seen in cells or lysates may run through a third protein. Here binding means that the protein was enriched with, or labelled near, the bait; the list need not be complete. Tags and fused reporters may be left off the sequences shown.
